Reference: patent US6448256B1, “Antibiotic prodrugs” (University of Massachusetts, priority 1999, dated 2002)
Some of these results come from one statement about several compounds together.

System: S. aureus
Assay: Bactericidal activity (killing) against S. aureus
Type: cell-based
Details: 2, 4, and 8× MIC

Question: How did the “incubation time within which killing was evident” value turn out when `Cc1ccc(Nc2cc(=O)n(CCCCO)c(=O)[nH]2)cc1I` [HB-IMAU] was run?
Answer: Its value is no more than 3 h.
